Measured values as given in paper PMC4303145.

The chains behind the UniProt entries cited, without tags or fusion partners. Where a name states a change or a piece, a line headed by the entry shows the natural chain unless it says otherwise.
UniProt Q8TED9: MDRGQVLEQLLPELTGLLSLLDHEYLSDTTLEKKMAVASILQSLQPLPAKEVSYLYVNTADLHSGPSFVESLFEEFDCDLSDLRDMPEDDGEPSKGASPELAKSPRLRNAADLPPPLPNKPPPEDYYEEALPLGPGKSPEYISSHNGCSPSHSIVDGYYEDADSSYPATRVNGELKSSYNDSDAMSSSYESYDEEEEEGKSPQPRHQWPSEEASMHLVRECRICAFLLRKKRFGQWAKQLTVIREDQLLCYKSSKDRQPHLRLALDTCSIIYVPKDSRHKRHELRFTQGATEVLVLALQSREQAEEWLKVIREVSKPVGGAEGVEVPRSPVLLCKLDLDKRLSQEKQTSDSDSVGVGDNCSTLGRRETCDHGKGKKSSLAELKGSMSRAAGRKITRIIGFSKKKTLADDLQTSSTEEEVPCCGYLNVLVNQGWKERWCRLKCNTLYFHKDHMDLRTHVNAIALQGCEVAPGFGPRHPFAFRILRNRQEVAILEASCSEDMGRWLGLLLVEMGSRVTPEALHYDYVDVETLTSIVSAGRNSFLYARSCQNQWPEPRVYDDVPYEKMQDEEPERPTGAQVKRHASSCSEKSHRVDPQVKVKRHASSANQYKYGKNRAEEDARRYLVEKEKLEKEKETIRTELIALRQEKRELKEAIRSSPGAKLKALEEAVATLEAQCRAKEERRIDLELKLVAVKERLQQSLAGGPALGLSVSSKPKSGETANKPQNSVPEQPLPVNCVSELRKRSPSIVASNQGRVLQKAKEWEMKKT
UniProt P18206: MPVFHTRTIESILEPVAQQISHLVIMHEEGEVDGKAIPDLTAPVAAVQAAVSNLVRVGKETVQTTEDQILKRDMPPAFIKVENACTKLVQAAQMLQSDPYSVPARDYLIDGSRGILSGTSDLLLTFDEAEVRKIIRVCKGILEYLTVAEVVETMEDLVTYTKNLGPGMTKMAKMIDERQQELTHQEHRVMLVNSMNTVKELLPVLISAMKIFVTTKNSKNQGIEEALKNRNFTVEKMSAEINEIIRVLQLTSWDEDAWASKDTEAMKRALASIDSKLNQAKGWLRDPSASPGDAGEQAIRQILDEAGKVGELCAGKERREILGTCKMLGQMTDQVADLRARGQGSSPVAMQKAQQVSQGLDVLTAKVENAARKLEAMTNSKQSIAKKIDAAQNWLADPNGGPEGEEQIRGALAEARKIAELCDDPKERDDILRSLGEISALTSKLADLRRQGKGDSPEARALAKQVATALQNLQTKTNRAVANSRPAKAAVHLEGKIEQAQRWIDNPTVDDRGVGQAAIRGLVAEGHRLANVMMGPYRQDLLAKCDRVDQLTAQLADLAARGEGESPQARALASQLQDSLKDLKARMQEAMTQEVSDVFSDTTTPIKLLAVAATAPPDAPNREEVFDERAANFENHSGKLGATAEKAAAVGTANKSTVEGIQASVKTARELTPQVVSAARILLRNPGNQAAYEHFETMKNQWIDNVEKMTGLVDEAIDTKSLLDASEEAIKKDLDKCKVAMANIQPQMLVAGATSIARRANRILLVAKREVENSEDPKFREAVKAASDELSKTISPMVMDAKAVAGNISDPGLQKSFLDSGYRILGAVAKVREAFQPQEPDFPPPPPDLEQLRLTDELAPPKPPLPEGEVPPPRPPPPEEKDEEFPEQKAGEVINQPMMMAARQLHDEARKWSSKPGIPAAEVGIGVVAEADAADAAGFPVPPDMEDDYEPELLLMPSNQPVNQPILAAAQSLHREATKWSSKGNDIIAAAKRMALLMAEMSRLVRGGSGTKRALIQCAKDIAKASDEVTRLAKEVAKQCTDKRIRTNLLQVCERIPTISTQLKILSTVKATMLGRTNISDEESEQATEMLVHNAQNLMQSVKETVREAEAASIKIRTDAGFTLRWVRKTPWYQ

Assays:
[1] = target: endogenous AFAP1L1 (human (endogenous in LoVo)) (UniProt Q8TED9); experiment: co-IP; LoVo whole cell lysates, endogenous proteins; immunoprecipitated with the anti-AFAP1L1 Ab, immunoblotted with Abs against vinculin or other invadopodia or focal adhesion proteins
[2] = target: 3×HA-tagged vinculin (human) (UniProt P18206); experiment: co-IP; RKO cells transiently co-transfected with 3×Flag-AFAP1L1 and 3×HA-vinculin; lysates immunoprecipitated with an anti-HA Ab, immunoblotted with an anti-Flag Ab

| Substance | binding [1] | binding [2] |
| --- | --- | --- |
| endogenous vinculin (from UniProt P18206-2) | binds |  |
| 3×Flag-tagged AFAP1L1 (actin filament-associated protein 1-like 1) (from UniProt Q8TED9 1-768) |  | binds |

Results are given in words; binding and its absence hold for the method and conditions named. Binding seen in cells or lysates may run through a third protein. Binding calls can cover weak binding; strength is not graded here.
